# Results are given in words; binding and its absence hold for the method and conditions named. Some results given as binding are weak or reduced against the parent protein; the word gives no strength.
# The chains behind the UniProt entries cited, without tags or fusion partners. Where a name states a change or a piece, a line headed by the entry shows the natural chain unless it says otherwise.
# UniProt P11362: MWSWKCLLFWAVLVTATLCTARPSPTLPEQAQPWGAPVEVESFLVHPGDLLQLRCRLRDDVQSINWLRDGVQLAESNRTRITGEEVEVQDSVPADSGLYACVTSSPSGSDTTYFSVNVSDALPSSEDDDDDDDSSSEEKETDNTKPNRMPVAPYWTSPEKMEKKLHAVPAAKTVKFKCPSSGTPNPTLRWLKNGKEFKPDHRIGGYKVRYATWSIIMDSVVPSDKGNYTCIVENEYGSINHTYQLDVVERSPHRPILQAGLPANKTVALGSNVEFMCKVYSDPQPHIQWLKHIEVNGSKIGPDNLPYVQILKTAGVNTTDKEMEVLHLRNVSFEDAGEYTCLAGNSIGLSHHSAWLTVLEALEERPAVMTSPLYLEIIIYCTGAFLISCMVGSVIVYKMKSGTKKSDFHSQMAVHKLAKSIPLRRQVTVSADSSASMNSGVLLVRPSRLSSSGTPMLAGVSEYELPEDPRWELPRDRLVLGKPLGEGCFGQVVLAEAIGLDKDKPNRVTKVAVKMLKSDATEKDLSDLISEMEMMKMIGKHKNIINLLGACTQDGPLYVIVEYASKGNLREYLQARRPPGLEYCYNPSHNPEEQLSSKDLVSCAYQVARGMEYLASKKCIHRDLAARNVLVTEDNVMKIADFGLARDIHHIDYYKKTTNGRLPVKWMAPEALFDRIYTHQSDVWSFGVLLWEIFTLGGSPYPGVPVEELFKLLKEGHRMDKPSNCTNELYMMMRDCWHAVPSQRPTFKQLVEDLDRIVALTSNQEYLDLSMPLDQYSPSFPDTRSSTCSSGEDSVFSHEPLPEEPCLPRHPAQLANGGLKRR
# UniProt Q9NSA1: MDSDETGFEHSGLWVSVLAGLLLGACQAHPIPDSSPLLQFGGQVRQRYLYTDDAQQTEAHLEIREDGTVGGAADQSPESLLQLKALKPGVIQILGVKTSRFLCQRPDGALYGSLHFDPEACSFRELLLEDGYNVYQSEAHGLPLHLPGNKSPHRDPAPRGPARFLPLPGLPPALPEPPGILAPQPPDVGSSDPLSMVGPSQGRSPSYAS
# Biological target: binary complex of FGFR1c ligand-binding domain with βKlotho ectodomain (murine; human) (UniProt P11362)
# Assay: SPR competition; FGF21 in solution against immobilized FGF21
substance,measurement,value
"N-terminally hexahistidine-tagged, mature form of human FGF21 (H29 to S209) (from UniProt Q9NSA1 29-209) (ligand)",binding,binds

# Reference: patent US9926355
